In doi:10.1101/2022.04.11.487493 one finds binding data, which are given here for 3 molecules.

The target in test [1] is T1, exon 5-deficient mutant calcium sensing-receptor (mCaSR), tagged with EGFP or myc (UniProt P41180).
T1 sequence: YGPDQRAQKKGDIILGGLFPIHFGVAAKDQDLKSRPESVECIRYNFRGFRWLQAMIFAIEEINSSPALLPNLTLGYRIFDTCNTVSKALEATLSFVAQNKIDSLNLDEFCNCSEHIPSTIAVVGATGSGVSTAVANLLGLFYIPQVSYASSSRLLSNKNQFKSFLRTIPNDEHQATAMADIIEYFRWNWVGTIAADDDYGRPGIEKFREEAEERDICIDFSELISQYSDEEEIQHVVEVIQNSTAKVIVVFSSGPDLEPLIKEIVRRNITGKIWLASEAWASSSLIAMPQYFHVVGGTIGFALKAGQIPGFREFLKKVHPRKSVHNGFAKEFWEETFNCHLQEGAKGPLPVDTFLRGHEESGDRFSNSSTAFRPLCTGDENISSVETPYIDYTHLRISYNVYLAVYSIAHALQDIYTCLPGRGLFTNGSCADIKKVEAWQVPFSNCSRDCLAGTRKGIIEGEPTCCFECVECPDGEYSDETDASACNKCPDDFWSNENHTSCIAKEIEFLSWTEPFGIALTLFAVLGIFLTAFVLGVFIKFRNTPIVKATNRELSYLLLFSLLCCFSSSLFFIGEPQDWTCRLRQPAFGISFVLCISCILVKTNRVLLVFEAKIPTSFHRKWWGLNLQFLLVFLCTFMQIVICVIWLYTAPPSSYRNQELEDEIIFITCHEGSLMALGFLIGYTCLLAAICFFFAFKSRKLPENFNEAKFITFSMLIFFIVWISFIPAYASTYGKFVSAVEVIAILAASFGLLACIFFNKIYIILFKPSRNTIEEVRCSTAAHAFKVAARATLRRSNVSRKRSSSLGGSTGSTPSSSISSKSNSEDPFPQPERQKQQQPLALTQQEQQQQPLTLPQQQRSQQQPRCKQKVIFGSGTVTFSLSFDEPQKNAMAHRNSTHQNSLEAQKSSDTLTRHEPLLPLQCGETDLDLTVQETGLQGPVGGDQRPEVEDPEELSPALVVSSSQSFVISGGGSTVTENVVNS
The test can be described thus: co-IP.

Test [2] has as its target T2, wild-type calcium sensing-receptor (CaSR), whole length, tagged with EGFP or myc, P41180.
T2 chain: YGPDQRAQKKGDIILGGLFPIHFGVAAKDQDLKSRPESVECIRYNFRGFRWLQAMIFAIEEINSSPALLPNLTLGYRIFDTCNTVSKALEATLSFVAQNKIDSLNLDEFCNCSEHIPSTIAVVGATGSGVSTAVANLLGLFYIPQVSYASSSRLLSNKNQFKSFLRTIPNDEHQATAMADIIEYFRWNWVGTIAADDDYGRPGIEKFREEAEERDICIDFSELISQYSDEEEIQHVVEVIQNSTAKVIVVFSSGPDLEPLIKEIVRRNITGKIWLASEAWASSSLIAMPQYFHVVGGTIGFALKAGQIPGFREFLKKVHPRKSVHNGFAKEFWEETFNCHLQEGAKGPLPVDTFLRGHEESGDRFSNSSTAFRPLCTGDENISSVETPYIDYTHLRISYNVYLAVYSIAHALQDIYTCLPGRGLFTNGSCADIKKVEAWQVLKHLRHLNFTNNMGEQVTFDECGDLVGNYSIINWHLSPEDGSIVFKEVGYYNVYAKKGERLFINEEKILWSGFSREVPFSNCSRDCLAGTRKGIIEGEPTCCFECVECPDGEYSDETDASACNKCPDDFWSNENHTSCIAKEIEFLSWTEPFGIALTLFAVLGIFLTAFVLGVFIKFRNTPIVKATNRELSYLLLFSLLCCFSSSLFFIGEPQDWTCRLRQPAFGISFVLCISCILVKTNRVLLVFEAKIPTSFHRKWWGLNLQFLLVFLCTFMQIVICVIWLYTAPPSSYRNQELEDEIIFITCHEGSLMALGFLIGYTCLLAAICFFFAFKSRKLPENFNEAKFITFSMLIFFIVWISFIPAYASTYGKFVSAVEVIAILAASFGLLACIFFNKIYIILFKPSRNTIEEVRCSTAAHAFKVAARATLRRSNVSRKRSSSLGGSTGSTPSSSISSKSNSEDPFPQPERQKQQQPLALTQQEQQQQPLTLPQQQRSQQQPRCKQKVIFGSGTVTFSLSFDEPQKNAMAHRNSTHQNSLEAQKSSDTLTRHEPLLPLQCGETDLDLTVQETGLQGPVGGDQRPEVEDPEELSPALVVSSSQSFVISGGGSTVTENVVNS
The test can be described thus: co-IP. Particulars: remark: other sources report otherwise.

Results are given in words; binding and its absence hold for the method and conditions named. In cells and extracts the contact can be indirect. Some entries that bind do so weakly or less than the wild type. Sequences can lack the tags named with a protein.

B1: exon 5-deficient mutant calcium sensing-receptor (mCaSR), tagged with EGFP or myc (receptor, UniProt P41180)
chain: T1 sequence
On to B1, for which the binding result in test [1] is recorded as “binds”.

B2: wild-type calcium sensing-receptor (CaSR), whole length, tagged with EGFP or myc, P41180 20-1078 (receptor)
chain: T2 chain
Turning to B2, the binding entry in test [2] is listed as “binds”.

B3: wild-type calcium sensing-receptor (CaSR), whole length, tagged with EGFP or myc (receptor, UniProt P41180 20-1078)
chain: T2 chain
Turning to B3, the binding result in test [1] was “binds”.
